Literature values in patent US20240310365A1, “DEVICE FOR EVALUATING INNER EAR DRUG DELIVERY” (North Carolina State University, priority 2023, published 2024).

Settings: humans; after intratympanic DSP 0.4-1.8 ml of 4 mg/ml; 20 μl perilymph; cited from earlier work

C[C@@H]1C[C@H]2[C@@H]3CCC4=CC(=O)C=C[C@]4(C)[C@@]3(F)[C@@H](O)C[C@]2(C)[C@@]1(O)C(=O)COP(=O)(O)O [DSP, dexamethasone sodium phosphate]
DSP concentration in perilymph: about 7.5 μg/mL
